Test results taken from patent US20230416299A1, “COMPOUND AND METHOD FOR THE TREATMENT AND DIAGNOSIS OF NEURODEGENERATIVE CONDITIONS” (Swansea University, priority 2013, published 2023).
Some results were stated once for a whole list of compounds, not compound by compound.

Tested on: mouse E11.5 brain primary cultures
Test: Mouse E11.5 brain primary cultures (Islet1+, active caspase 3+, BrdU, Nkx6.1 counts)
Format: cell-based
Conditions: dose response; for Concentration with significant difference (p<0.05) from vehicle in number of active caspase 3+ cells: wt cultures; for Concentration with significant difference (p<0.05) from vehicle in number of Islet1+ cells: wild type cultures
Description: Primary Brain Cultures. Brains from E11.5 mice were manually dissected, plated on poly-D-lysine (150,000 cells/cm2) and grown in serum-free N2 media consisting of 1:1 mixture of F12 and DMEM with 10 ng/mL insulin, 100 μg/mL apo-transferrin, 100 μM putrescine, 20 nM progesterone, 30 nM selenium, 6 mg/mL glucose, and 1 mg/mL BSA. Cells were treated for 3 days in vitro (DIV) with the compounds of interest, fixed with 4% PFA and processed for staining using appropriate antibodies.
For BrdU analysis, cells were treated with BrdU one hour after plating and media was replaced with fresh medium after 16 h. After a further 2 days in culture, cells were treated for 30 min with 2N HCl and then immunocytochemistry was performed to evaluate the number of double BrdU+;Islet1+ cells (a measure of motor neuron neurogenesis). Hoechst staining was performed by permeabilizing cells with a 0.3% Triton-X 100/PBS solution for 5 min followed by incubation with Hoechst 33258 (Sigma) for 10 min.
Antibodies and Detection Procedures. Cells were fixed in 4% PFA, washed in PBS and blocked in 5% normal goat serum/PBS for 1 h at room temperature. Primary antibodies were diluted in PBS (pH 7.4), 0.3% Triton X-100, 1% BSA and incubations were carried out overnight at +4° C. or at room temperature for 2 h. The antibodies used were anti-: BrdU (1:400; Abeam), Islet-1 (1:100; Developmental Studies Hybridoma Bank), cleaved caspase-3 (Asp175) (1:100; Cell Signaling Technology), tyrosine hydroxylase (TH;1:1000; Pel-Freeze) GABA (1:1,000; Sigma), Brn3a (1:250; Millipore), Nkx6.1 (1:200; Novus Biologicals), choline acetyltransferase (ChAT; 1:500; Millipore) and appropriate secondary antibodies (Jackson ImmunoResearch or Alexa). Cells positive for the corresponding marker were counted directly at the microscope at a magnification of 20 x. Cells were counted in every well, in eight consecutive fields (going from one side of the well to the other, passing through the center), in three different wells per experiment and in three different experiments per condition. Random pictures of the wells were taken for every condition to document the result, and representative pictures were subsequently selected to represent the quantitative data. Photos were acquired with a Zeiss Axioplan microscope and a Hamamatsu camera C4742-95 using the Openlab software.

Structure (SMILES)	Concentration with significant difference (p<0.05) from vehicle in number of active caspase 3+ cells [µM]	Concentration with significant difference (p<0.05) from vehicle in number of Islet1+ cells [µM]
CC(CCC[C@@H](C)[C@H]1CC[C@H]2[C@@H]3[C@H](O)C=C4C[C@@H](O)CC[C@]4(C)[C@H]3CC[C@]12C)C(=O)O (stereo partly drawn) [3β,7α-diHCA, 3β,7α-dihydroxycholest-5-en-26-oic acid]	≥ 10	–
CC(CCC[C@@H](C)[C@H]1CC[C@H]2[C@@H]3C(=O)C=C4C[C@@H](O)CC[C@]4(C)[C@H]3CC[C@]12C)C(=O)O (stereo partly drawn) [3βH, 7O-CA, 3β-hydroxy-7-oxocholest-5-en-26-oic acid]	–	≥ 10
CC(CCC[C@@H](C)[C@H]1CC[C@H]2[C@@H]3CC=C4C[C@@H](O)CC[C@]4(C)[C@H]3CC[C@]12C)C(=O)O (stereo partly drawn) [3β-HCA, 3β-hydroxycholest-5-en-26-oic acid]	≥ 2	≥ 2
CC(CCC[C@@H](C)[C@H]1CC[C@H]2[C@@H]3[C@@H](O)C=C4C[C@@H](O)CC[C@]4(C)[C@H]3CC[C@]12C)C(=O)O (stereo partly drawn) [3β,7β-diHCA, 3β,7β-dihydroxycholest-5-en-26-oic acid]	≥ 2	≥ 2
